Data as given in the supplement of paper PMC6411743.
± gives the standard deviation of the averaged measurements. The list shows a part of the results.

Chains of the proteins cited; added tags and fusions are not shown. Lines headed by an entry give the natural chain unless they say otherwise; changes in a name come on top.
UniProt O00499: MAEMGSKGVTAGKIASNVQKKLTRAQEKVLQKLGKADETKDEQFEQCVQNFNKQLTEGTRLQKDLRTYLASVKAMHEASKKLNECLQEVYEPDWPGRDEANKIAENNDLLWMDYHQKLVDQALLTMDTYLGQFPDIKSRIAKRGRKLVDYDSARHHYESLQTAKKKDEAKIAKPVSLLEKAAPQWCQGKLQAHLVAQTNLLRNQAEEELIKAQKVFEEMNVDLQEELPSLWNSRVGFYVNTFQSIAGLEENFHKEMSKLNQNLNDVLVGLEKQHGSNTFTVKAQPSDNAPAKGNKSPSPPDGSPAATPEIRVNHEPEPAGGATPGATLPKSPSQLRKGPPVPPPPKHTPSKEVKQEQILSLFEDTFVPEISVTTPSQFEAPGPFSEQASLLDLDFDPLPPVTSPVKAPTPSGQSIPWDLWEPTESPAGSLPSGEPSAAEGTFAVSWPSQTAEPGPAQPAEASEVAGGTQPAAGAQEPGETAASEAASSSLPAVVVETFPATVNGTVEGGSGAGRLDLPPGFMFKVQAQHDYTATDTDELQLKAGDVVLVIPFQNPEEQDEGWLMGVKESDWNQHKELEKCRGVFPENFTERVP
UniProt O15391, whole entry: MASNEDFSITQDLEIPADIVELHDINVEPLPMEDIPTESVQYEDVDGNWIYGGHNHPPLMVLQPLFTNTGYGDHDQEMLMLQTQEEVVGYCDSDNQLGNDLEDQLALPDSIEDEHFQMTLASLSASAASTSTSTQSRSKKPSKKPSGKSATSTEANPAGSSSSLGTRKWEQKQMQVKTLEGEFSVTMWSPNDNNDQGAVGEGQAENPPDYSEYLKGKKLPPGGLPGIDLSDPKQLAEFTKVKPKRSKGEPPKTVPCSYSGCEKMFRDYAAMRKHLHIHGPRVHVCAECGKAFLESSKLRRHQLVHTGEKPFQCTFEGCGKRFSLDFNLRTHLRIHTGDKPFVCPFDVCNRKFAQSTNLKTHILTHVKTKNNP
UniProt O95785: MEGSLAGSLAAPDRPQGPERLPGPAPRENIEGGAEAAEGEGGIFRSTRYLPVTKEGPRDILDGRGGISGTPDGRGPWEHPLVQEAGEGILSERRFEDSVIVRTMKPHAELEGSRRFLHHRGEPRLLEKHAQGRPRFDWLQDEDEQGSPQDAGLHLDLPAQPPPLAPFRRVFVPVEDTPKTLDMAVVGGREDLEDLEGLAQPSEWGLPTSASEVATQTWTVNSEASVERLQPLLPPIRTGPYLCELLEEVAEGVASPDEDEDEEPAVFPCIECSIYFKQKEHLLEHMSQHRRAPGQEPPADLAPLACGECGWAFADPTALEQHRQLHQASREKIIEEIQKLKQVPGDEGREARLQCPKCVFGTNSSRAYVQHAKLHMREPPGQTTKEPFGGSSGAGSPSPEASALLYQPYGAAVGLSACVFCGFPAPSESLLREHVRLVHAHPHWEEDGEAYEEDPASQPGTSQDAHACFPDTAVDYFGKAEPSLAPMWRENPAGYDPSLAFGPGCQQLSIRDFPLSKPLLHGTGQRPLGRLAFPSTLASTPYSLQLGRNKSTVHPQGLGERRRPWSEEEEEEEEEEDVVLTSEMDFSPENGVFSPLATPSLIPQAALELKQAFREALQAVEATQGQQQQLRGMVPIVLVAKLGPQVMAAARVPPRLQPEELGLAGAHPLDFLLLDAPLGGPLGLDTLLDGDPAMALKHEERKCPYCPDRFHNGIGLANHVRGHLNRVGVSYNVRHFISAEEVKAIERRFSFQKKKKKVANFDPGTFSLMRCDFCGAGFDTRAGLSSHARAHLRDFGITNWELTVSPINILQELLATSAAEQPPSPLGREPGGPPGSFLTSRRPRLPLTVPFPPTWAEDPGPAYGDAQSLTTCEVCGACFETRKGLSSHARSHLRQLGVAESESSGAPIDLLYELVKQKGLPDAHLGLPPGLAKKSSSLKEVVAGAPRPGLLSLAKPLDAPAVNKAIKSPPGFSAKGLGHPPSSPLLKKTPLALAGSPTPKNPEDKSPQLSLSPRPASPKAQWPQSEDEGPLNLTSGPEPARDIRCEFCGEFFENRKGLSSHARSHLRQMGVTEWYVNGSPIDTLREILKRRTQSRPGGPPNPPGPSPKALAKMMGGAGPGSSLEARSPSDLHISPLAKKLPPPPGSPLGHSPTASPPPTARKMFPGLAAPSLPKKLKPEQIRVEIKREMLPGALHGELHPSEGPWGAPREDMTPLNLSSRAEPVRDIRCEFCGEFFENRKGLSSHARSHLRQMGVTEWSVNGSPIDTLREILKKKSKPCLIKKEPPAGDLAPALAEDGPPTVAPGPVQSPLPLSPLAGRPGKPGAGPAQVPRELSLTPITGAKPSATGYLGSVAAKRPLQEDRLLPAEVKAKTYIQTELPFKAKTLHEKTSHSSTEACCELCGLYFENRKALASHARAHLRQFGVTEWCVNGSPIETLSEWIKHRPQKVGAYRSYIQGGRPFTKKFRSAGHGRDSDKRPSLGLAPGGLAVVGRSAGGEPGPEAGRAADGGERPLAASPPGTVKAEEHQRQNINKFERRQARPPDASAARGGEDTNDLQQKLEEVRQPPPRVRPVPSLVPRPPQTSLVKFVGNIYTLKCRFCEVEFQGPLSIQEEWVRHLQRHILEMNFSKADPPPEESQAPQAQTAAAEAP
UniProt O43567: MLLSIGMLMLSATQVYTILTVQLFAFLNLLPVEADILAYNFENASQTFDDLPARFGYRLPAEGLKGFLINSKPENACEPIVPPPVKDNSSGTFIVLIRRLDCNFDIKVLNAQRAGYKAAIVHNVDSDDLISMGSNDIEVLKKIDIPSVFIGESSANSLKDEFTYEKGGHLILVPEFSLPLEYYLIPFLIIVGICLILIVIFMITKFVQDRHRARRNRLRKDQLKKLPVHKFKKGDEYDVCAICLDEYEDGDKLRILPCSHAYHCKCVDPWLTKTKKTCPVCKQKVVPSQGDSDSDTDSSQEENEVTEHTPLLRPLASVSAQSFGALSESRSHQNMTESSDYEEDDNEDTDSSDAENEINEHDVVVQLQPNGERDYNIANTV
UniProt O43765: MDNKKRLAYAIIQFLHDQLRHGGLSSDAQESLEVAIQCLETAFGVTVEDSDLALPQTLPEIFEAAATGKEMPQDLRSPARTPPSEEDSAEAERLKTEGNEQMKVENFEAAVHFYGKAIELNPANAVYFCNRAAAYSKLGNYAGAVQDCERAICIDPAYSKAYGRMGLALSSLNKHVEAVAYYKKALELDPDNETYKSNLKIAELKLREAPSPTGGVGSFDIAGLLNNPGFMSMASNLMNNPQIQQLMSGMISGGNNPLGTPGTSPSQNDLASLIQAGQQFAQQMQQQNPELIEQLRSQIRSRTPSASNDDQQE
UniProt O14908: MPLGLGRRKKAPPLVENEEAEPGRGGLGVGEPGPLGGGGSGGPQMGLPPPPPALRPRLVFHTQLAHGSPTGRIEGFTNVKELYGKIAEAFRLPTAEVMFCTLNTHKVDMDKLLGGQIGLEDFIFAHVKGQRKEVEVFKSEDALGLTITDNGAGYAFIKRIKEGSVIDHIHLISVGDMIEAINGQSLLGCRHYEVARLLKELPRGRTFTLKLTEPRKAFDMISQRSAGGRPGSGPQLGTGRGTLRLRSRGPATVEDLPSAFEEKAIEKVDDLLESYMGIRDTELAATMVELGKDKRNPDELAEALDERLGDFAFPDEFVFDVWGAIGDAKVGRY
UniProt O00743: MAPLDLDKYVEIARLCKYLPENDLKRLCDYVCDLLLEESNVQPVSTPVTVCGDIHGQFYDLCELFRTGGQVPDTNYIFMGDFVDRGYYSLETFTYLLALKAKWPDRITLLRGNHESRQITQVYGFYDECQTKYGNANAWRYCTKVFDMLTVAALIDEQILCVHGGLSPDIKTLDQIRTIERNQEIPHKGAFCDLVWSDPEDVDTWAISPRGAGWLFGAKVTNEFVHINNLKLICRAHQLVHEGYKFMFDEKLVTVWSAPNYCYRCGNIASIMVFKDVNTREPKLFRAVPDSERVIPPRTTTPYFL
UniProt O15294: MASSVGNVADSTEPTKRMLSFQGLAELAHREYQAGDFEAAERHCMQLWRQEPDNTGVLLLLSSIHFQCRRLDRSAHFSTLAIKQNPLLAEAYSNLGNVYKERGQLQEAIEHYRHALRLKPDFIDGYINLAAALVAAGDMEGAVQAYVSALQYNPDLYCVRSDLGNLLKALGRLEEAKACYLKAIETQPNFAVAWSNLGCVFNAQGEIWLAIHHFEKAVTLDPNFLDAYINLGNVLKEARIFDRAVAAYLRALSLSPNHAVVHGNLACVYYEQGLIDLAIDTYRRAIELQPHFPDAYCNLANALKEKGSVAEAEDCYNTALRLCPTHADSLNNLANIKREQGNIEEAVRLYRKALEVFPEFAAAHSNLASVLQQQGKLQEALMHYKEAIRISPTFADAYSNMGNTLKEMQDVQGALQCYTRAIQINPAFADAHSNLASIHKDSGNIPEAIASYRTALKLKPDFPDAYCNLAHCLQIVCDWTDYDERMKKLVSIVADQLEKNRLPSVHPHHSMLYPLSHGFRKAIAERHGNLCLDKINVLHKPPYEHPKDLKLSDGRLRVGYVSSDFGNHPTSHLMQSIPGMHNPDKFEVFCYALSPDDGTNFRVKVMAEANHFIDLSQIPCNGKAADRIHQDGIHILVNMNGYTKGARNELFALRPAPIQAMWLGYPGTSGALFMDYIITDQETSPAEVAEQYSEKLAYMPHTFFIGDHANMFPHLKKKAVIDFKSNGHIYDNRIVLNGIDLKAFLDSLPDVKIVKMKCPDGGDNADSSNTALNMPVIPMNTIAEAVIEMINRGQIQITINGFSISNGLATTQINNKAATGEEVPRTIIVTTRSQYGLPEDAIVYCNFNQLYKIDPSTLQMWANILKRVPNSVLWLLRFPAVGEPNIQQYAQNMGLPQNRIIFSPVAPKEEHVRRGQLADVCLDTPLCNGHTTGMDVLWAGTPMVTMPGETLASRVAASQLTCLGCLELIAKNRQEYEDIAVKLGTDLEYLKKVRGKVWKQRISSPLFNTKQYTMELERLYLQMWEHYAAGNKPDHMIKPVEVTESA
UniProt O43488: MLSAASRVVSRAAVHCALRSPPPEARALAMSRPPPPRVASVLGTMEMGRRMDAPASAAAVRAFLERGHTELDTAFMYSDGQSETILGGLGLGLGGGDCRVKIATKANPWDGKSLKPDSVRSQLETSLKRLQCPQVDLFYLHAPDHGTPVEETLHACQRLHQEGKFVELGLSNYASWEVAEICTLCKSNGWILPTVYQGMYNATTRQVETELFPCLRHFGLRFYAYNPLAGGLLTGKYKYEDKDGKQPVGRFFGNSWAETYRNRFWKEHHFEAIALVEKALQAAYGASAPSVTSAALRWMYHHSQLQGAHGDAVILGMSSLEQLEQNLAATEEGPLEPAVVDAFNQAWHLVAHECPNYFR
UniProt O43167: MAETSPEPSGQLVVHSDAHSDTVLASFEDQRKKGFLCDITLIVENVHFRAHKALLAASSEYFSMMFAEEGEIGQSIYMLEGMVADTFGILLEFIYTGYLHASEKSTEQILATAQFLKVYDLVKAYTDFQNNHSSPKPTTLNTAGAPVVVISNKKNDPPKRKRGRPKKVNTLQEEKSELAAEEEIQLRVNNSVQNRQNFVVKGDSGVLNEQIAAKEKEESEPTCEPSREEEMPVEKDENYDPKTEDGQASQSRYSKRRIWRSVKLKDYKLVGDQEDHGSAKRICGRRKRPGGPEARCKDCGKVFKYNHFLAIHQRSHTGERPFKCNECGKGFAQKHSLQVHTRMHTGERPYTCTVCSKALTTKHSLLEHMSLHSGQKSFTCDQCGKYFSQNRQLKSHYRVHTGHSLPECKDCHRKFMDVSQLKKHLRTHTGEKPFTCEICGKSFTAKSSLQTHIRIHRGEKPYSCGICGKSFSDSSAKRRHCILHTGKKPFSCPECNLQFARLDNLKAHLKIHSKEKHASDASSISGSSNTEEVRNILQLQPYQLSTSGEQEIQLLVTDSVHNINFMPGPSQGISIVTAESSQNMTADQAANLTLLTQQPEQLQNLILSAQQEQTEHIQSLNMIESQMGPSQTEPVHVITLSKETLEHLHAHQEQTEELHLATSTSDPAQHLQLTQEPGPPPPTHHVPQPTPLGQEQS
UniProt O43819: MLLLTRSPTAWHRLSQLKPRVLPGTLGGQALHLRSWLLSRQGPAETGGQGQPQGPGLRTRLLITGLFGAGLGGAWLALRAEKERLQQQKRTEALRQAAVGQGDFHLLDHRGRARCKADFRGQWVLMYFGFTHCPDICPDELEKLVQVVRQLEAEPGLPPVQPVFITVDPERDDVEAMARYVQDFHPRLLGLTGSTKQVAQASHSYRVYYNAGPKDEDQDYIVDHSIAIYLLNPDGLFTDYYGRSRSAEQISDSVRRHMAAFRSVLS

Compound: Nc1nc2c(ncn2[C@@H]2O[C@H](COP(=O)(O)OP(=O)(O)OP(=O)(O)O)[C@@H](O)[C@H]2O)c(=O)[nH]1 [guanosine triphosphate]
Test: NP40-soluble protein abundance relative to vehicle (solubility fold change) (ratio); higher = more soluble protein in presence of GTP
Method in brief: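 Jurkat crude lysate (Dounce-homogenised) was treated with eight concentrations from 0.1 to 10 mM for 10 min at room temperature, then 3 min at 37 °C. It was solubilised with 0.8% NP40 and benzonase (60 min, 4 °C) and ultracentrifuged, and the supernatant was TMT-labelled for LC-MS/MS. Intensities were vsn-normalised, and the value is the fold change against the NP40-processed vehicle per replicate, from three independent experiments.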

**Q.** How did the NP40-soluble protein abundance (concentration: 0.1mM) turn out when UniProt O00499 and related entries was run?
**A.** 0.808 ± 0.12

**Q.** What about the NP40-soluble protein abundance (concentration: 0.5mM) of the same target?
**A.** 0.793 ± 0.097

**Q.** What about the NP40-soluble protein abundance (concentration: 1mM) of the same target?
**A.** 0.824 ± 0.13

**Q.** What about the NP40-soluble protein abundance (concentration: 2mM) of the same target?
**A.** 0.789 ± 0.11

**Q.** What about the NP40-soluble protein abundance (concentration: 4mM) of the same target?
**A.** 0.798 ± 0.12

**Q.** And the NP40-soluble protein abundance (concentration: 6mM)?
**A.** 0.767 ± 0.097

**Q.** And the NP40-soluble protein abundance (concentration: 8mM)?
**A.** 0.771 ± 0.082

**Q.** And the NP40-soluble protein abundance (concentration: 10mM)?
**A.** 0.8 ± 0.13

**Q.** For DKC1 (UniProt O60832), which NP40-soluble protein abundance (concentration: 0.1mM) is on record?
**A.** 1.08 ± 0.11

**Q.** And the NP40-soluble protein abundance (concentration: 0.5mM)?
**A.** 1.01 ± 0.069

**Q.** What about the NP40-soluble protein abundance (concentration: 1mM) of the same target?
**A.** 1.11 ± 0.11

**Q.** And the NP40-soluble protein abundance (concentration: 2mM)?
**A.** 1.15 ± 0.078

**Q.** And the NP40-soluble protein abundance (concentration: 4mM)?
**A.** 1.22 ± 0.09

**Q.** What about the NP40-soluble protein abundance (concentration: 6mM) of the same target?
**A.** 1.36 ± 0.13

**Q.** And the NP40-soluble protein abundance (concentration: 8mM)?
**A.** 1.48 ± 0.18

**Q.** What about the NP40-soluble protein abundance (concentration: 10mM) of the same target?
**A.** 1.65 ± 0.21

**Q.** What does the source list for UniProt O15391?
**A.** NP40-soluble protein abundance (concentration: 0.1mM): 0.952 ± 0.025; NP40-soluble protein abundance (concentration: 0.5mM): 1.01 ± 0.079; NP40-soluble protein abundance (concentration: 1mM): 1.02 ± 0.058; NP40-soluble protein abundance (concentration: 2mM): 1.02 ± 0.078; NP40-soluble protein abundance (concentration: 4mM): 0.991 ± 0.064; NP40-soluble protein abundance (concentration: 6mM): 0.991 ± 0.099; NP40-soluble protein abundance (concentration: 8mM): 1.02 ± 0.032; NP40-soluble protein abundance (concentration: 10mM): 1.03 ± 0.044

**Q.** Which NP40-soluble protein abundance (concentration: 0.1mM) does the source give for “M0QXA7 and related entries (UniProt O95785)” here?
**A.** 1.08 ± 0.031

**Q.** And the NP40-soluble protein abundance (concentration: 0.5mM)?
**A.** 1.06 ± 0.039

**Q.** And the NP40-soluble protein abundance (concentration: 1mM)?
**A.** 1.07 ± 0.033

**Q.** And the NP40-soluble protein abundance (concentration: 2mM)?
**A.** 1.06 ± 0.077

**Q.** What about the NP40-soluble protein abundance (concentration: 4mM) of the same target?
**A.** 1.11 ± 0.043

**Q.** And the NP40-soluble protein abundance (concentration: 6mM)?
**A.** 1.11 ± 0.024

**Q.** What about the NP40-soluble protein abundance (concentration: 8mM) of the same target?
**A.** 1.21 ± 0.057

**Q.** What about the NP40-soluble protein abundance (concentration: 10mM) of the same target?
**A.** 1.18 ± 0.036

**Q.** Which NP40-soluble protein abundance (concentration: 0.1mM) does the source give for RNF13 (UniProt O43567) here?
**A.** 0.97 ± 0.08

**Q.** What about the NP40-soluble protein abundance (concentration: 0.5mM) of the same target?
**A.** 0.958 ± 0.07

**Q.** What about the NP40-soluble protein abundance (concentration: 1mM) of the same target?
**A.** 1.03 ± 0.056

**Q.** What about the NP40-soluble protein abundance (concentration: 2mM) of the same target?
**A.** 0.999 ± 0.094

**Q.** And the NP40-soluble protein abundance (concentration: 4mM)?
**A.** 0.964 ± 0.096

**Q.** What about the NP40-soluble protein abundance (concentration: 6mM) of the same target?
**A.** 1.04 ± 0.076

**Q.** What about the NP40-soluble protein abundance (concentration: 8mM) of the same target?
**A.** 1 ± 0.093

**Q.** What about the NP40-soluble protein abundance (concentration: 10mM) of the same target?
**A.** 0.99 ± 0.065

**Q.** For SGTA (UniProt O43765), which NP40-soluble protein abundance (concentration: 0.1mM) is on record?
**A.** 0.825 ± 0.07

**Q.** What about the NP40-soluble protein abundance (concentration: 0.5mM) of the same target?
**A.** 0.80038 ± 0.00078

**Q.** And the NP40-soluble protein abundance (concentration: 1mM)?
**A.** 1.02 ± 0.14

**Q.** What about the NP40-soluble protein abundance (concentration: 2mM) of the same target?
**A.** 0.972 ± 0.027

**Q.** What about the NP40-soluble protein abundance (concentration: 4mM) of the same target?
**A.** 0.948 ± 0.048

**Q.** What about the NP40-soluble protein abundance (concentration: 6mM) of the same target?
**A.** 0.938 ± 0.035

**Q.** What about the NP40-soluble protein abundance (concentration: 8mM) of the same target?
**A.** 0.889 ± 0.1

**Q.** What about the NP40-soluble protein abundance (concentration: 10mM) of the same target?
**A.** 1.02 ± 0.11

**Q.** UniProt O14908 and related entries was tested. Which NP40-soluble protein abundance (concentration: 0.1mM) did it give?
**A.** 1.01 ± 0.046

**Q.** And the NP40-soluble protein abundance (concentration: 0.5mM)?
**A.** 1.04 ± 0.052

**Q.** What about the NP40-soluble protein abundance (concentration: 1mM) of the same target?
**A.** 0.944 ± 0.061

**Q.** What about the NP40-soluble protein abundance (concentration: 2mM) of the same target?
**A.** 0.932 ± 0.063

**Q.** And the NP40-soluble protein abundance (concentration: 4mM)?
**A.** 0.889 ± 0.062

**Q.** What about the NP40-soluble protein abundance (concentration: 6mM) of the same target?
**A.** 0.914 ± 0.054

**Q.** And the NP40-soluble protein abundance (concentration: 8mM)?
**A.** 0.903 ± 0.073

**Q.** And the NP40-soluble protein abundance (concentration: 10mM)?
**A.** 0.901 ± 0.076

**Q.** What does the source list for UniProt O00743 and related entries?
**A.** NP40-soluble protein abundance (concentration: 0.1mM): 1.07 ± 0.13; NP40-soluble protein abundance (concentration: 0.5mM): 1.09 ± 0.13; NP40-soluble protein abundance (concentration: 1mM): 0.945 ± 0.1; NP40-soluble protein abundance (concentration: 2mM): 0.979 ± 0.19; NP40-soluble protein abundance (concentration: 4mM): 0.979 ± 0.15; NP40-soluble protein abundance (concentration: 6mM): 0.955 ± 0.13; NP40-soluble protein abundance (concentration: 8mM): 0.916 ± 0.097; NP40-soluble protein abundance (concentration: 10mM): 0.888 ± 0.13

**Q.** Which results are given for UniProt O00115 and related entries?
**A.** NP40-soluble protein abundance (concentration: 0.1mM): 0.912 ± 0.1; NP40-soluble protein abundance (concentration: 0.5mM): 0.868 ± 0.11; NP40-soluble protein abundance (concentration: 1mM): 0.884 ± 0.13; NP40-soluble protein abundance (concentration: 2mM): 0.85 ± 0.15; NP40-soluble protein abundance (concentration: 4mM): 0.846 ± 0.12; NP40-soluble protein abundance (concentration: 6mM): 0.877 ± 0.15; NP40-soluble protein abundance (concentration: 8mM): 0.871 ± 0.12; NP40-soluble protein abundance (concentration: 10mM): 0.845 ± 0.13

**Q.** For ARPC3 (UniProt O15145), which NP40-soluble protein abundance (concentration: 0.1mM) is on record?
**A.** 1.01 ± 0.12

**Q.** And the NP40-soluble protein abundance (concentration: 0.5mM)?
**A.** 0.986 ± 0.073

**Q.** What about the NP40-soluble protein abundance (concentration: 1mM) of the same target?
**A.** 1.09 ± 0.18

**Q.** And the NP40-soluble protein abundance (concentration: 2mM)?
**A.** 1.08 ± 0.15

**Q.** What about the NP40-soluble protein abundance (concentration: 4mM) of the same target?
**A.** 1.05 ± 0.12

**Q.** And the NP40-soluble protein abundance (concentration: 6mM)?
**A.** 1.06 ± 0.089

**Q.** And the NP40-soluble protein abundance (concentration: 8mM)?
**A.** 1.05 ± 0.091

**Q.** And the NP40-soluble protein abundance (concentration: 10mM)?
**A.** 1.11 ± 0.23

**Q.** For OGT (UniProt O15294), which NP40-soluble protein abundance (concentration: 0.1mM) is on record?
**A.** 0.975 ± 0.022

**Q.** What about the NP40-soluble protein abundance (concentration: 0.5mM) of the same target?
**A.** 1 ± 0.013

**Q.** And the NP40-soluble protein abundance (concentration: 1mM)?
**A.** 0.97 ± 0.011

**Q.** And the NP40-soluble protein abundance (concentration: 2mM)?
**A.** 0.958 ± 0.027

**Q.** What about the NP40-soluble protein abundance (concentration: 4mM) of the same target?
**A.** 0.958 ± 0.012

**Q.** And the NP40-soluble protein abundance (concentration: 6mM)?
**A.** 0.96 ± 0.015

**Q.** And the NP40-soluble protein abundance (concentration: 8mM)?
**A.** 0.937 ± 0.029

**Q.** And the NP40-soluble protein abundance (concentration: 10mM)?
**A.** 0.927 ± 0.014

**Q.** Which results are given for UniProt O43929 and related entries?
**A.** NP40-soluble protein abundance (concentration: 0.1mM): 1.07 ± 0.13; NP40-soluble protein abundance (concentration: 0.5mM): 1.03 ± 0.12; NP40-soluble protein abundance (concentration: 1mM): 0.989 ± 0.11; NP40-soluble protein abundance (concentration: 2mM): 0.917 ± 0.1; NP40-soluble protein abundance (concentration: 4mM): 0.961 ± 0.12; NP40-soluble protein abundance (concentration: 6mM): 0.984 ± 0.082; NP40-soluble protein abundance (concentration: 8mM): 0.994 ± 0.11; NP40-soluble protein abundance (concentration: 10mM): 0.952 ± 0.12

**Q.** Which results are given for AKR7A2 (UniProt O43488)?
**A.** NP40-soluble protein abundance (concentration: 0.1mM): 0.9941 ± 0.0061; NP40-soluble protein abundance (concentration: 0.5mM): 0.973 ± 0.021; NP40-soluble protein abundance (concentration: 1mM): 0.916 ± 0.027; NP40-soluble protein abundance (concentration: 2mM): 0.872 ± 0.065; NP40-soluble protein abundance (concentration: 4mM): 0.883 ± 0.033; NP40-soluble protein abundance (concentration: 6mM): 0.872 ± 0.049; NP40-soluble protein abundance (concentration: 8mM): 0.886 ± 0.029; NP40-soluble protein abundance (concentration: 10mM): 0.859 ± 0.099

**Q.** For ZBTB24 (UniProt O43167), which NP40-soluble protein abundance (concentration: 0.1mM) is on record?
**A.** 1.09 ± 0.18

**Q.** What about the NP40-soluble protein abundance (concentration: 0.5mM) of the same target?
**A.** 1.09 ± 0.2

**Q.** What about the NP40-soluble protein abundance (concentration: 1mM) of the same target?
**A.** 1.02 ± 0.21

**Q.** What about the NP40-soluble protein abundance (concentration: 2mM) of the same target?
**A.** 1.05 ± 0.2

**Q.** And the NP40-soluble protein abundance (concentration: 4mM)?
**A.** 1.06 ± 0.24

**Q.** What about the NP40-soluble protein abundance (concentration: 6mM) of the same target?
**A.** 0.976 ± 0.11

**Q.** What about the NP40-soluble protein abundance (concentration: 8mM) of the same target?
**A.** 1 ± 0.053

**Q.** What about the NP40-soluble protein abundance (concentration: 10mM) of the same target?
**A.** 1.08 ± 0.14

**Q.** Which NP40-soluble protein abundance (concentration: 0.1mM) does the source give for SCO2 (UniProt O43819) here?
**A.** 1.11 ± 0.087

**Q.** What about the NP40-soluble protein abundance (concentration: 0.5mM) of the same target?
**A.** 1.05 ± 0.069

**Q.** What about the NP40-soluble protein abundance (concentration: 1mM) of the same target?
**A.** 1.04 ± 0.1

**Q.** And the NP40-soluble protein abundance (concentration: 2mM)?
**A.** 1.03 ± 0.077

**Q.** And the NP40-soluble protein abundance (concentration: 4mM)?
**A.** 1.05 ± 0.16

**Q.** What about the NP40-soluble protein abundance (concentration: 6mM) of the same target?
**A.** 1.04 ± 0.14

**Q.** What about the NP40-soluble protein abundance (concentration: 8mM) of the same target?
**A.** 1.07 ± 0.094

**Q.** And the NP40-soluble protein abundance (concentration: 10mM)?
**A.** 1.05 ± 0.1
